This passage reports binding results from paper PMC6981194.

By UniProt entry, the sequences of proteins in these tests, tags left out. Where a name states a change or a piece, a line headed by the entry shows the natural chain unless it says otherwise.
UniProt Q6NXK8: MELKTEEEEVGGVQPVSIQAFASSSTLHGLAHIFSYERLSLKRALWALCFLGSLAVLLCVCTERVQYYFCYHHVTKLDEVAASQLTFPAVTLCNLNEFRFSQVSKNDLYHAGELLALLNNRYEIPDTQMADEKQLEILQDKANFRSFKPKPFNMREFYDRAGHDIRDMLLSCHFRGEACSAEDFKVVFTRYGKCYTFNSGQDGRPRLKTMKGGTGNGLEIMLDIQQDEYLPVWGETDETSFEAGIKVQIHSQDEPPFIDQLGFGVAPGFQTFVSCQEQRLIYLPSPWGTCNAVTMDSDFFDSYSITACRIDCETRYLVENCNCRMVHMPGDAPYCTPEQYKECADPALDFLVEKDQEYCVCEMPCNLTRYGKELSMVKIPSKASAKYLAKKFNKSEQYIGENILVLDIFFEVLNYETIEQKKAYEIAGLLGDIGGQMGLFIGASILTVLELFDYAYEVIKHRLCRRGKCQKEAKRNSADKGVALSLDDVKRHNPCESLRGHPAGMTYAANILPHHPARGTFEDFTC
UniProt P18708: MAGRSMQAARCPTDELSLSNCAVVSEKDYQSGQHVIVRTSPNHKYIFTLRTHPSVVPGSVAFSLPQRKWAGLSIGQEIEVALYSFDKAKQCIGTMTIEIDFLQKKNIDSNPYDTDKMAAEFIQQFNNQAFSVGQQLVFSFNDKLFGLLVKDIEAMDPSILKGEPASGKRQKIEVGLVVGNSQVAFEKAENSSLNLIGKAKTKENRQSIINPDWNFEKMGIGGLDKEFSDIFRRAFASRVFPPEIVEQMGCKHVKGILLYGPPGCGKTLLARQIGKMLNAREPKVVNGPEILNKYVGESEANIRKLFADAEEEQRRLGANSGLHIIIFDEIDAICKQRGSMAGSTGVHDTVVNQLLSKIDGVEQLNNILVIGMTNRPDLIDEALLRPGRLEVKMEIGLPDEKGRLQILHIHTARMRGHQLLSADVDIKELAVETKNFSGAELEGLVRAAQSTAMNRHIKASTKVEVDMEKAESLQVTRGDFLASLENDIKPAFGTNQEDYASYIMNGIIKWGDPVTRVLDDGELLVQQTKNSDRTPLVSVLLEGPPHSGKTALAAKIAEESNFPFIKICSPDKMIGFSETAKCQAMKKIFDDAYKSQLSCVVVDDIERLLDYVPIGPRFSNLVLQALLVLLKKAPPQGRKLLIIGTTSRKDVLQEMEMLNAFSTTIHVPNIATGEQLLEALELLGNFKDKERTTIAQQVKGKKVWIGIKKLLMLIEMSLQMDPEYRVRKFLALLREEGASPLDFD
UniProt A0A8C2QHS8: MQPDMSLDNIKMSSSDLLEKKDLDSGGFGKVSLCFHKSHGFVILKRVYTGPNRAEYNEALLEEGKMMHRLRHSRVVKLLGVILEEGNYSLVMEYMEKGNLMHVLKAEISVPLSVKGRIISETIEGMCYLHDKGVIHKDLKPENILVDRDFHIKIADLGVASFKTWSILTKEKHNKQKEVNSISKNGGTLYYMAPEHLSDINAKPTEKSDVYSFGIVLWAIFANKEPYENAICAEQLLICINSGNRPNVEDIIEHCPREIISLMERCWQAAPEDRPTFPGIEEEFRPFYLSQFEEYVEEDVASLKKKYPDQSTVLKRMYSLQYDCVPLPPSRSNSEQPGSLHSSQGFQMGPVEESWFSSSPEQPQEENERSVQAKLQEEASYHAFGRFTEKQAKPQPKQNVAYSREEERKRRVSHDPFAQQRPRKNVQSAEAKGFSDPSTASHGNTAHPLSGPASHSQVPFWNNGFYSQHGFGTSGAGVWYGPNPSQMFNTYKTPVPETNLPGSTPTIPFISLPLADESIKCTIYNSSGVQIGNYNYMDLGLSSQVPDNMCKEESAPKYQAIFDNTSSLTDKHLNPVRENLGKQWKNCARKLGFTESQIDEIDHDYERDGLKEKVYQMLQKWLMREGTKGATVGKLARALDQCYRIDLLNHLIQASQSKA

Results are given in words; binding and its absence hold for the method and conditions named. Binding seen in cells or lysates may run through a third protein. A result given as binding can be weak or reduced; the word gives no strength.

The target of the assay is ASIC1a E/A mutant (all four glutamates E6EEE9 mutated into alanines) (not stated (human or mouse cDNA cloned)) (UniProt Q6NXK8). The assay is described as follows: co-IP; lysates of transfected CHO cells exposed to pH 7.4 or pH 6.0; anti-ASIC1a antibody, Protein G agarose, 4 °C; lysis buffer 20 mM Tris-Cl pH 7.4, 150 mM NaCl, 1% Triton X-100; blots for RIPK1 and NSF.

In the case of “N-ethylmaleimide-sensitive fusion ATPase (NSF) in CHO cells (from UniProt P18708 1-744)”, the binding result is “binds”.

In the case of “receptor-interacting serine/threonine-protein kinase 1 (RIPK1) in CHO cells (from UniProt A0A8C2QHS8 1-659)”, the binding entry is given as “binds”.
